Experimental data: US7745570B2, “PH dependent adhesive peptides” (Kansas State University Research Foundation, priority 2005, dated 2010)
Where no end group is shown, it is not given here.

Tests used:
[1] = Dry shear (adhesive) strength of hot-pressed glued wood specimens, ASTM D2339-98; format: physicochemical; details: for Dry shear strength: pH 12, 4% peptide, hot press 170° C.
[2] = Water resistance: wet shear strength after soaking glued wood in water for 48 h; format: physicochemical; details: pH 12; for Wet shear strength: after immersion in water for 48 hr, 170° C. pressed
[3] = pH 12.0, 4% w/w peptide, hot press 130° C., 5 min

Substance | Dry shear strength [1] | Shear strength (adhesive strength), dry [1, 3] | Wet shear strength [2] | other results
EEE-FLIVIGSII-KKK (EEEFLIVIGSIIKKK) [Peptide E3h9K3] | 2.39±0.24 MPa | 1.81±0.18 MPa | 0.37±0.12 MPa | Wet strength as percent of the dry 170° C. pressed shear strength ([2]; 48 hr immersion): 15%
EEEFLIVIGSIIEEE-OH [Peptide E3h9E3, EEE-FLIVIGSII-EEE] | – | 1.09±0.21 MPa | – | –
KKK-FLIVIGSII-EEE (KKKFLIVIGSIIEEE) [Peptide K3h9E3] | – | – | – | Adhesive strength at all three pH values ([1]; pH 2.2, 6.8 and 12.0, hot press 130° C.): only weakly adhesive at all pH values; Behaviour during the immersion step (wet strength) ([2]; prepared at either temperature (130 or 170° C.), water 48 hr): fall apart during the immersion step
KKK-FLIVIGSII-KKK (KKKFLIVIGSIIKKK) [Peptide K3h9K3] | 3.74±0.38 MPa | 3.05 MPa | 1.38±0.2 MPa | Shear strength (adhesive strength), dry ([1]; pH 2.2, 4% w/w peptide, hot press 130° C.): modest adhesive strength; Shear strength (adhesive strength), dry ([1]; pH 6.8, 4% w/w peptide, hot press 130° C.): minimal strength; Dry shear strength ([1]; listed as K3h9K): approximately 3.7 MPa; Shear strength (adhesive strength), dry ([1]; pH 12.0, 4% w/w peptide, hot press 130° C., 5 min, listed as K3h K3): approximately 3.05±0.35 MPa; Adhesive strength in D2O ([1]; pH 12 in D2O, hot press 130° C.): 2.7±0.33 MPa
KKK-FLIVIGSII-KKK-FLIVIGSII-KKK (KKKFLIVIGSIIKKKFLIVIGSIIKKK) [(K3h9)2K3] | 3.91±0.33 MPa | 2.83±0.33 MPa | 1.43±0.06 MPa | –
KKK-FLIVIGSII-KKK-FLIVIGSII-KKK-FLIVIGSII-KKK (KKKFLIVIGSIIKKKFLIVIGSIIKKKFLIVIGSIIKKK) [(K3h9)3K3] | 4.15±0.3 MPa | 2.78±0.30 MPa | 1.38±0.15 MPa | –
XXX-FLIVIGSII-XXX [Peptide X3h9X3, X = 2,3-diaminopropionic acid] | – | 3.0±0.29 MPa | – | –
